{"source": "patent US20250375406A1", "about": "“TREATMENT OF NON-ALCOHOLIC STEATOHEPATITIS AND NON-ALCOHOLIC FATTY LIVER DISEASE” (VEROSCIENCE LLC, priority 2022, published 2025)", "key": {"[1]": {"tested_on": "NASH", "assay": "L-DOPA plus pantethine with or without curcumin in high fat high fructose diet mice, Study 2 (Example 4)", "type": "in vivo", "details": "vehicle value assigned 1.0 (maximum score); 3 weeks treatment", "excerpt": "After 3 weeks on the test diet, animals were sacrificed for analyses of body weight, body fat, blood glucose, and liver physiology."}, "[2]": {"tested_on": "NASH", "details": "vehicle set to 1.0; diet 66 days, then 32 days treatment"}}}
{"molecule": "CC(C)(CO)[C@@H](O)C(=O)NCCC(=O)NCCSSCCNC(=O)CCNC(=O)[C@H](O)C(C)(C)CO", "note": "[pantethine]", "values": [{"measurement": "NASH propensity score (liver weight x body weight x body fat x blood glucose level)", "setting": "[1]", "value": 0.18}, {"measurement": "NASH propensity score (liver triglyceride level x body weight x body fat x blood glucose level)", "setting": "[2]", "value": 0.32}]}
